Data on four molecules can be found in article PMC5470734.

For assay [1], the target named is T1, GST-AtRAD51 (Arabidopsis thaliana) (UniProt P94102).
T1 sequence: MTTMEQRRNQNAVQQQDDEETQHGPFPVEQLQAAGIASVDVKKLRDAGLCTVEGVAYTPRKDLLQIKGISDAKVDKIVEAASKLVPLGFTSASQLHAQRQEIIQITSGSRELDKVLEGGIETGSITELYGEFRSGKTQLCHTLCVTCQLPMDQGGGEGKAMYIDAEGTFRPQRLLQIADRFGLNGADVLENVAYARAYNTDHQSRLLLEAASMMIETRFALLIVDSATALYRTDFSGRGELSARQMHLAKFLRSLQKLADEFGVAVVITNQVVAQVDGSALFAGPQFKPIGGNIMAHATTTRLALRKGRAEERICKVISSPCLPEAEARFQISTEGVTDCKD
In words: pull-down; GST- and His-tagged proteins expressed in E. coli, mixed and incubated 2 h at 4°C, pulled down by GST beads 1 h at 4°C; western blot with GST or His-tag antibody. (In general: In western blotting, separated proteins are transferred to a membrane and probed.)

The target of assay [2] is T2, AtRAD51 (BiFC fusion) (Arabidopsis thaliana) (UniProt P94102).
T2 sequence: T1 sequence
In words: split reporter; BiFC (YFP) in Nicotiana benthamiana leaf cells after Agrobacterium infiltration; confocal microscopy after 36 h; nuclear signals.

For assay [3], the target named is T3, AtXRCC3 (BiFC fusion) (Arabidopsis thaliana) (UniProt Q9FKM5).
T3 sequence: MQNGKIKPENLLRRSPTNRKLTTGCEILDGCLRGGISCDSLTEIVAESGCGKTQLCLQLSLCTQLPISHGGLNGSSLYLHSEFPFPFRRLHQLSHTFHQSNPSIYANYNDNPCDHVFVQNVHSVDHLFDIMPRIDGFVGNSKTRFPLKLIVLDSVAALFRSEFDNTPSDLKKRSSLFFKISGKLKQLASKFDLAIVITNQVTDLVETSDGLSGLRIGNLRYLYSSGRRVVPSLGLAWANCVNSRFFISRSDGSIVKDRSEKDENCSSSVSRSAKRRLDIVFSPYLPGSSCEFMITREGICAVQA
The description is as above.

The target of assay [4] is T4, AtRAD51 (yeast two-hybrid fusion) (Arabidopsis thaliana) (UniProt P94102).
T4 sequence: T1 sequence
In words: two-hybrid; pGBKT7 constructs in Y2H Gold mated with pGADT7 constructs in Y187; selection on SD/-His-Ade-Trp-Leu with X-alpha-Gal and AbA; blue indicates a positive interaction.

In assay [5] the target is T5, AtRAD51C (yeast two-hybrid fusion) (Arabidopsis thaliana) (UniProt Q8GXF0).
T5 sequence: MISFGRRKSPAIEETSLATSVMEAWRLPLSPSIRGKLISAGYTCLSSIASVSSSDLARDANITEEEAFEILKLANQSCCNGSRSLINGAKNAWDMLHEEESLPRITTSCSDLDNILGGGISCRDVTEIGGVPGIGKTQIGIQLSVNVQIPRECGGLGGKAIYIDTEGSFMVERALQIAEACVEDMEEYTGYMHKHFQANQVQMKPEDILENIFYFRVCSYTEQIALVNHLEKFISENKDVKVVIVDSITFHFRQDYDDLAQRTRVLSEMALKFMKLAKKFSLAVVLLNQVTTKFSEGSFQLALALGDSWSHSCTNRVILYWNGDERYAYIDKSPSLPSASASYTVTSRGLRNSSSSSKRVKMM
The assay is described as above.

Assay [6] deals with T6, GST-AtRAD51C (Arabidopsis thaliana) (UniProt Q8GXF0).
T6 sequence: T5 sequence
In words: pull-down; GST- and His-tagged proteins expressed in E. coli, mixed and incubated 2 h at 4°C, pulled down by GST beads 1 h at 4°C; western blot with GST or His-tag antibody.

Results are given in words; binding and its absence hold for the method and conditions named. For part of these data: In cells and extracts the contact can be indirect. Some entries that bind do so weakly or less than the wild type. Sequences can lack the tags named with a protein.

B1: AtRAD51C-His (protein, UniProt Q8GXF0 1-363)
chain: T5 sequence
On to B1, for which, in assay [1], the binding result was “binds”.

B2: AtRAD51C (BiFC fusion) (protein, UniProt Q8GXF0 1-363)
chain: T5 sequence
On to B2, for which the binding result in assay [2] and in assay [3] was “binds” throughout.

B3: AtXRCC3 (yeast two-hybrid fusion) (protein, UniProt Q9FKM5 1-304)
chain: T3 sequence
Regarding B3, the binding entry in assay [4] and in assay [5] was “binds” throughout.

B4: AtXRCC3-His tag fusion protein (protein, UniProt Q9FKM5 1-304)
chain: T3 sequence
With B4, the binding result in assay [6] is “binds”.
